Source: PubChem BioAssay AID504834 (National Center for Advancing Translational Sciences (NCATS), 2011)
The campaign covered roughly 320,000 compounds. About 22,000 (6.9%) were called active. The inconclusive results got no clear call from the source; some entries with a clear call stand among them for comparison. Calls follow the shape of the dose curve; as a rule, active = well fitted inhibition curve with a large enough effect; inconclusive = small, poorly fitted or top-dose-only effect, or another doubt; inactive = no such curve, though single readings can be large or run the other way. Potencies beside an inconclusive call are fits to weak or partial responses and may not hold up.

Experiment: Primary qHTS for delayed death inhibitors of the malarial parasite plastid, 96 hour incubation
Conditions: P. falciparum luciferase reporter growth; series mostly up to 28.7 µM
Outline: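 P. falciparum expressing integrated firefly luciferase, in erythrocytes at 2% hematocrit, 0.05% parasitemia, incubated with compounds 96 h at 37 C, 5% CO2. Growth inhibition read as loss of luminescence; two-generation exposure targets delayed-death apicoplast inhibitors.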
Potency is read from the fitted curve at half-maximal effect.

Compound | Potency
COc1ccc(OC)c(N(CC(=O)Nc2ccccc2)S(=O)(=O)c2ccccc2)c1 | inconclusive: 8.28 µM [inhibitor, partial curve]
Cn1c(=O)cc(N)n(-c2ccccc2)c1=O | inactive
O=C(CCCCCn1c(=S)[nH]c2ccccc2c1=O)NCc1ccc2c(c1)OCO2 | inconclusive: 0.0657 µM [inhibitor, full curve, poor fit]
CN(Cc1cccs1)C(=O)CN1CCN(S(=O)(=O)c2ccc3c(c2)OCCCO3)CC1 | inactive
O=C(CCCN1C(=O)c2ccccc2C1=O)N1CCCCC1 | active: 5.22 µM
COC(=O)c1c(CCl)noc1C(=O)NC(C)C | inconclusive: 7.38 µM [inhibitor, single point]
Cc1cccc(CCN2CCN=C2Nc2ccccc2)c1 | inconclusive: 18.5 µM [inhibitor, single point]
Cc1cc(OCC(=O)Nc2ccncc2)ccc1Br | inactive
CC(=O)C1=C(C)Nc2ncnn2C1c1ccccc1 (stereo not drawn) | active: 0.329 µM
CCc1ccc(Nc2nnc(SCC(=O)NCCN3C(=O)CSC3=O)s2)cc1 | inconclusive: 13.1 µM [inhibitor, single point]
COc1ccccc1C(=O)NNC(=O)c1cccc([N+](=O)[O-])c1 | inactive
CSC1=NCCN1C(=O)Cc1ccc(Cl)cc1 | inconclusive: 18.5 µM [inhibitor, single point]
CC(=O)c1ccc(OCC(O)CN2CCN(S(=O)(=O)c3c(C)cc(C)cc3C)CC2)cc1 (stereo not drawn) | inconclusive: 5.22 µM [inhibitor, partial curve]
CCOC(=O)c1ccccc1NC1c2ccccc2C(=O)N1c1ccc(C)cn1 (stereo not drawn) | inactive
O=C1c2cnc3nc(SCc4ccccc4)nn3c2CC2c3ccccc3CCN12 (stereo not drawn) | inconclusive: 4.15 µM [inhibitor, partial curve, poor fit]
COc1ccc(-n2c(=S)[nH]c3cc(C(=O)NCCCN4CCCC4=O)ccc3c2=O)cc1OC | inactive
O=C(CCN1CCN(c2ccccc2F)CC1)Nc1ccc(F)cc1 | inconclusive: 18.5 µM [inhibitor, single point]
CCCC(=O)n1nc(-c2ccc(OC)cc2)nc1N | inconclusive: 8.28 µM [inhibitor, partial curve, poor fit]
C(=N\N=C\c1cccs1)/c1cccs1 | inconclusive: 18.5 µM [inhibitor, single point]
CN(C)CCNc1ncnc2c1sc1nc(N3CCOCC3)c3c(c12)CC(C)(C)SC3 | inconclusive: 18.5 µM [inhibitor, single point]
Cc1cccc(NC(=O)c2cc3n(n2)C(C(F)(F)F)CC(C2CC2)N3)c1C (stereo not drawn) | inconclusive: 10.4 µM [inhibitor, single point]
COc1cc(OC)cc(C(=O)Nc2cccc3cccnc23)c1 | inactive

3 entries already listed, arranged by heavy-atom count, falling.
Compound | Potency
COc1cc(OC)cc(C(=O)Nc2cccc3cccnc23)c1 | inactive
Cc1cc(OCC(=O)Nc2ccncc2)ccc1Br | inactive
CSC1=NCCN1C(=O)Cc1ccc(Cl)cc1 | inconclusive: 18.5 µM [inhibitor, single point]

(continued)

Compound | Potency
COCCn1c(=S)[nH]c2cc(C(=O)N3CCCC(C)C3)ccc2c1=O (stereo not drawn) | inconclusive: 18.5 µM [inhibitor, single point]
COC(=O)C1=C(c2ccc(OC)c(OC)c2)C[C@@H]2CC[C@H]1N2C(=O)NC1CCCCC1 | inconclusive: 5.22 µM [inhibitor, partial curve, poor fit]
O=C(CSc1nnc(-c2ccco2)n1-c1ccccc1)NCCc1ccccc1 | inconclusive: 9.28 µM [inhibitor, single point]
CCOc1ccc(-c2nnn(CC(=O)NCc3cccs3)n2)cc1 | inconclusive: 3.29 µM [inhibitor, full curve, poor fit]
CN(Cc1ccccc1)C(=O)c1ccco1 | active: 11.7 µM
CCOc1ccc(/C=C2/Sc3ccc(C(=O)N4CCN(C(=O)c5ccco5)CC4)cc3N(C)C2=O)cc1OC | inconclusive: 9.28 µM [inhibitor, single point]
CCOc1ccc(CN2CCN(Cc3cccc4c3OCO4)CC2CCO)cc1 (stereo not drawn) | inconclusive: 18.5 µM [inhibitor, partial curve, poor fit]
O=C(c1ccc(C(F)(F)F)cc1)C1CCCN(C(=O)CCc2ccncc2)C1 (stereo not drawn) | inconclusive: 10.4 µM [inhibitor, single point]
COc1ccc(C(c2c(O)ccc3ccccc23)N2CCOCC2)c(OC)c1 (stereo not drawn) | inconclusive: 10.4 µM [inhibitor, single point]
COc1ccc(CC(=O)NCC2CCCN(Cc3cc(OC)cc(OC)c3)C2)cc1 (stereo not drawn) | inconclusive: 2.94 µM [inhibitor, partial curve, poor fit]
O=C(NCc1ccccn1)c1cc(-c2ccc(Cl)cc2)nc2ccccc12 | inconclusive: 18.5 µM [inhibitor, single point]
O=C(CCNC(=O)c1ccccc1Cl)NCCc1ccc(Cl)cc1 | inconclusive: 0.928 µM [inhibitor, partial curve, poor fit]
O=C1c2cccc3cccc(c23)C(=O)N1CCN1CCN(C(=S)Nc2ccc(F)cc2)CC1 | inactive
COCCNC(=O)C(c1ccc(F)cc1)N(Cc1ccco1)C(=O)CCC(=O)Nc1ccccn1 (stereo not drawn) | inconclusive: 5.22 µM [inhibitor, partial curve, poor fit]
Cc1ccc(NC(=O)C2CCC(=O)N2)cc1C (stereo not drawn) | inconclusive: 18.5 µM [inhibitor, single point]
O=C(NCCCN1CCCC1=O)c1ccc([N+](=O)[O-])s1 | inconclusive: 10.4 µM [inhibitor, single point]
CCc1onc(C)c1C(=O)Nc1ccc2c(c1)OCO2 | inactive
COc1cc(C=C(c2nc3ccccc3s2)c2nc3ccccc3s2)ccc1O | inconclusive: 18.5 µM [inhibitor, single point]
CCn1c(COc2cc(C)cc(C)c2)nnc1SCC(=O)N1CCN(c2ccccc2)CC1 | inconclusive: 4.15 µM [inhibitor, partial curve, poor fit]
O=C1CCC/C(=N\NC(=O)c2ccc(COc3ccccc3-c3ccccc3)cc2)C1 | inconclusive: 18.5 µM [inhibitor, single point]
CCN(CC)S(=O)(=O)c1ccc(F)c(C(=O)OC2CC(C)OC2=O)c1 (stereo not drawn) | inactive
